# Results from patent publication US8557784B2, “Glycyrrhizinates of morphinan derivatives” (Standard Chem. & Pharm. Co., Ltd., priority 2011, dated 2013).
# Experiment: Evaluation of taste (bitterness) on the tongue by an expert group
# Settings: 5 mg on the tongue; scale 0 no bitter, 1 just perceptible, 2 slightly bitter, 3 bitter, 4 more bitter, 5 very bitter
row,Substance,Average Rating (0-5) of bitterness
1,dimemorfan glycyrrhizinate,0.3
2,dextromethorphan glycyrrhizinate,0.2
3,Dimemorfan phosphate,4.1
